pIC50: −log10 of the molar value. Some of these results come from one statement about several compounds together. At least one compound was matched to its structure with a doubt left.
Biological target: T1, human CB1 receptor (Homo sapiens, UniProt P21554)
T1 construct: expressed in transfected cells; membranes used
Test: Cannabinoid Receptor-1 functional assay: inhibition of CP55940-induced [35S]GTPγS binding to membranes of CHO-K1 cells expressing human CB1
Assay type: biochemical
Conditions: 3 nM CP55940, [35S]GTPγS SPA, hCB1 membranes; read-out: IC50 value for antagonizing a CB1 receptor agonist
From the text: Transfection and Cell Culture—The cDNA encoding the human CB1 (Cannabinoid Receptor-1) receptor (GenBank accession number NM_016083) was cloned from a human adipose tissue cDNA library and cloned into the eukaryotic expression vector pcDNA3.1 (Invitrogen).
Chinese Hamster Ovary cells (CHO-K1) stably expressing recombinant human CB1 were generated by transfecting the plasmid containing the coding sequence of the human CB1 receptor in CHO-K1 cells, using lipofectamin, according to the manufacturer instructions. Resistant clones were selected in the presence of 600 μg/ml G418 (Life technology). […]
Functional activities of the above examples of compounds of the invention were assessed in vitro by measuring their ability to inhibit CP55940-induced [^35S]GTPγS binding to membranes prepared from CHO-K1 cells expressing the human CB1 receptor (described in Transfection and Cell Culture). […] The resulting pellet (membranes) was resuspended in 20 mM Hepes (pH 7.4), 0.1 mM EDTA, 2 mM MgCl2 and protease inhibitors and protein concentration was determined by Micro BCA Protein Assay Reagent Kit (Pierce Biotechnology) according to the manufacturer instructions. […] Microtiter plates were centrifuged at 1500 rpm for 5 min. and radioactivity was read immediately using a Topcounter (PerkinElmer Life Sciences). […]

Sequences of proteins named here, by UniProt entry; tags and fusion partners are left off.
UniProt P21554, whole entry: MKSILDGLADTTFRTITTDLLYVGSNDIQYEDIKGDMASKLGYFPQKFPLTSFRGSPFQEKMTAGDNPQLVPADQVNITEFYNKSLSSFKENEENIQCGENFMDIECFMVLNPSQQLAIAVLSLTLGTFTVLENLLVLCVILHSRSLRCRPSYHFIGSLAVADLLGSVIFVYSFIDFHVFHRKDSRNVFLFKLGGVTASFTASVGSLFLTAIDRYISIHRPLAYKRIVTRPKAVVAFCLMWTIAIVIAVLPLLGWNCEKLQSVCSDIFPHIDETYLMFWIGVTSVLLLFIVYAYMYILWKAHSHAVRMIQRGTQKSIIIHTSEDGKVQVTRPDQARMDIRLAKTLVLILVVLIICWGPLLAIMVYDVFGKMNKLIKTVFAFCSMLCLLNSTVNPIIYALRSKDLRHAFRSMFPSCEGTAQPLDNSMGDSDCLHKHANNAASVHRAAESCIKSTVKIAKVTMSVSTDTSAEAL

| Molecule | pIC50 |
| --- | --- |
| 2-{1-(2-Fluoro-phenyl)-5- (4-chloro-phenyl)-3-[4-(4- chlorophenoxy)- piperidine-1-carbonyl]- 1H-pyrazol-4-yl}- propionic acid [[4.3]] | > 6.52 |
| O=C(O)Cc1c(C(=O)N2CCc3cc(C(F)(F)F)ccc3C2)nn(-c2ccccc2Cl)c1-c1ccc(Cl)cc1 [[1.19], [1-(2-Chloro-phenyl)-5-(4-chloro-phenyl)-3-(6-trifluoromethyl-3,4-dihy-dro-1H-isoquinoline-2-carbonyl)-1H-pyrazol-4-yl]-acetic acid] | > 6.52 |
